PubChem BioAssay AID1508597 – Cure First | 2020
Aim: 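Survival screen with siRNA in ovarian cancer cells derived from patients, with or without rucaparib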 (primary screen). Cells: human ovarian carcinoma lines grown from tumours: OCI-P5x (papillary serous) and OCI-C5x (clear cell). Knock-down reagent: siRNA pool against human genes, 1.25 pmol siRNA per well. Time to read-out: 72 h or 96 h, depending on the cell culture. Treatment: rucaparib 20 µM (about IC30) or vehicle, present until read-out. Rucaparib or vehicle: Vehicle. Cell line: OCI-C5x (clear cell). Read-out: 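Luminescent ATP-based viability assay read 72 or 96 h after transfection, depending on culture, given as normalised percent viability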. Scale: viability, normalised: higher = more viable cells remaining. Hit rule: 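a well counts as a hit if its normalised viability is under 80 percent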. Calls: active = viability under 80%; inactive = viability 80% or more.
Shown is a random part of the about 2,100 reagents, under one of the conditions tested. 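Calls flag viability under 80% in either arm, not effects specific to rucaparib; the reference for percent is not stated.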 A number with no mark means an inactive call. Reagent sequences are not shown. The record does not give: the 100% reference.

| gene | technical replicate | viability, normalised (%) |
| --- | --- | --- |
| SP1 (GeneID 6667) | 1 | 65.2 (active) |
| SP1 (GeneID 6667) | 2 | 35.8 (active) |
| SP1 (GeneID 6667) | 3 | 52.8 (active) |
| PRKCH (GeneID 5583) | 1 | 79.8 (active) |
| PRKCH (GeneID 5583) | 2 | 47.1 (active) |
| PRKCH (GeneID 5583) | 3 | 54.9 (active) |
| DROSHA (GeneID 29102) | 1 | 38.8 (active) |
| DROSHA (GeneID 29102) | 2 | 84 |
| DROSHA (GeneID 29102) | 3 | 40.6 (active) |
| SOX21 (GeneID 11166) | 1 | 32.8 (active) |
| SOX21 (GeneID 11166) | 2 | 38.3 (active) |
| SOX21 (GeneID 11166) | 3 | 34.9 (active) |
| SPO11 (GeneID 23626) | 1 | 46.8 (active) |
| SPO11 (GeneID 23626) | 2 | 67.6 (active) |
| SPO11 (GeneID 23626) | 3 | 51.1 (active) |
| DDX43 (GeneID 55510) | 1 | 50.2 (active) |
| DDX43 (GeneID 55510) | 2 | 47.1 (active) |
| DDX43 (GeneID 55510) | 3 | 62.4 (active) |
| CTCF (GeneID 10664) | 1 | 35.8 (active) |
| CTCF (GeneID 10664) | 2 | 37.1 (active) |
| CTCF (GeneID 10664) | 3 | 33 (active) |
| ITGB5 (GeneID 3693) | 1 | 37.2 (active) |
| ITGB5 (GeneID 3693) | 2 | 28.7 (active) |
| ITGB5 (GeneID 3693) | 3 | 27.6 (active) |
| SYK (GeneID 6850) | 1 | 91 |
| SYK (GeneID 6850) | 2 | 77.6 (active) |
| SYK (GeneID 6850) | 3 | 63 (active) |
| DTYMK (GeneID 1841) | 1 | 47.6 (active) |
| DTYMK (GeneID 1841) | 2 | 52.4 (active) |
| DTYMK (GeneID 1841) | 3 | 34.3 (active) |
| KDM8 (GeneID 79831) | 1 | 50.4 (active) |
| KDM8 (GeneID 79831) | 2 | 55 (active) |
| KDM8 (GeneID 79831) | 3 | 63.9 (active) |
| PTPRC (GeneID 5788) | 1 | 45.1 (active) |
| PTPRC (GeneID 5788) | 2 | 31.8 (active) |
| PTPRC (GeneID 5788) | 3 | 38.4 (active) |
| GEN1 (GeneID 348654) | 1 | 70.4 (active) |
| GEN1 (GeneID 348654) | 2 | 57 (active) |
| GEN1 (GeneID 348654) | 3 | 61.5 (active) |
| PTAR1 (GeneID 375743) | 1 | 45 (active) |
| PTAR1 (GeneID 375743) | 2 | 55.6 (active) |
| PTAR1 (GeneID 375743) | 3 | 47.9 (active) |
| TSSK2 (GeneID 23617) | 1 | 76.4 (active) |
| TSSK2 (GeneID 23617) | 2 | 72.6 (active) |
| TSSK2 (GeneID 23617) | 3 | 80.2 |
| APOE (GeneID 348) | 1 | 40.2 (active) |
| APOE (GeneID 348) | 2 | 36.9 (active) |
| APOE (GeneID 348) | 3 | 46.3 (active) |
| DGKZ (GeneID 8525) | 1 | 68.2 (active) |
| DGKZ (GeneID 8525) | 2 | 69.9 (active) |
| DGKZ (GeneID 8525) | 3 | 48.3 (active) |
| CAMK2B (GeneID 816) | 1 | 45.8 (active) |
| CAMK2B (GeneID 816) | 2 | 38.1 (active) |
| CAMK2B (GeneID 816) | 3 | 44.5 (active) |
| SMYD3 (GeneID 64754) | 1 | 60.8 (active) |
| SMYD3 (GeneID 64754) | 2 | 69.4 (active) |
| SMYD3 (GeneID 64754) | 3 | 62.7 (active) |
| CKM (GeneID 1158) | 1 | 129 |
| CKM (GeneID 1158) | 2 | 71.9 (active) |
| CKM (GeneID 1158) | 3 | 70.8 (active) |
| ALK (GeneID 238) | 1 | 55.2 (active) |
| ALK (GeneID 238) | 2 | 46.8 (active) |
| ALK (GeneID 238) | 3 | 55.1 (active) |
| BBC3 (GeneID 27113) | 1 | 38.6 (active) |
| BBC3 (GeneID 27113) | 2 | 44.3 (active) |
| BBC3 (GeneID 27113) | 3 | 49.6 (active) |
| MAP3K10 (GeneID 4294) | 1 | 74.4 (active) |
| MAP3K10 (GeneID 4294) | 2 | 49 (active) |
| MAP3K10 (GeneID 4294) | 3 | 52.6 (active) |
| ENY2 (GeneID 56943) | 1 | 53.3 (active) |
| ENY2 (GeneID 56943) | 2 | 54.5 (active) |
| ENY2 (GeneID 56943) | 3 | 57.2 (active) |
| ITPK1 (GeneID 3705) | 1 | 56.1 (active) |
| ITPK1 (GeneID 3705) | 2 | 55.5 (active) |
| ITPK1 (GeneID 3705) | 3 | 50.4 (active) |

In a second layout: entries from further up
gene | technical replicate | viability, normalised (%)
TSSK2 (GeneID 23617) | 2 | 72.6 (active)
TSSK2 (GeneID 23617) | 3 | 80.2
APOE (GeneID 348) | 1 | 40.2 (active)
APOE (GeneID 348) | 2 | 36.9 (active)
APOE (GeneID 348) | 3 | 46.3 (active)
